According to PubChem BioAssay AID1671190 (National Center for Advancing Translational Sciences (NCATS), 2021):
The campaign covered roughly 580,000 compounds. About 6,100 (1.1%) were called active. Inconclusive means that the source gave no clear call. Such entries were picked first, then a sample of the others. Calls come from the whole dose curve; as a rule, active = well fitted inhibition curve with a large enough effect; inconclusive = small, poorly fitted or top-dose-only effect, or another doubt; inactive = no such curve, though single readings can be large or run the other way. Potencies of inconclusive entries are doubtful fits and often do not repeat.

Chains of the proteins cited; added tags and fusions are not shown. Lines headed by an entry give the natural chain unless they say otherwise; changes in a name come on top.
UniProt P18054: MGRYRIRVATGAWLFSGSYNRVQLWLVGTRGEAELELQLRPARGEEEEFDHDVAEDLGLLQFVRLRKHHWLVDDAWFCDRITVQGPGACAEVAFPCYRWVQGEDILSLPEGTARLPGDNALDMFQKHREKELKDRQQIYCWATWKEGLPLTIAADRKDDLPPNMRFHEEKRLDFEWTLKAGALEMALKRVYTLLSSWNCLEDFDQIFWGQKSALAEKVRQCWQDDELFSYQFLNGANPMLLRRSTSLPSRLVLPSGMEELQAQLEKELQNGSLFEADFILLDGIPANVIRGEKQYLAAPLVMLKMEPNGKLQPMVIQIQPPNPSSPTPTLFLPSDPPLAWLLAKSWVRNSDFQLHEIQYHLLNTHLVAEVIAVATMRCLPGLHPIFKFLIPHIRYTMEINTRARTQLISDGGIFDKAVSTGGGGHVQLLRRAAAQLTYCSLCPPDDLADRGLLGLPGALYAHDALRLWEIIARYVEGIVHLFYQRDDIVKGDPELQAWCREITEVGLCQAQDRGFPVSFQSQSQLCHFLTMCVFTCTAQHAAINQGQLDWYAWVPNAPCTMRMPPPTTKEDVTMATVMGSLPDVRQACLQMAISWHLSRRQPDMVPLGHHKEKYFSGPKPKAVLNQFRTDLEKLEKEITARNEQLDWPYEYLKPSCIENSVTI

The compounds below were run against Polyunsaturated fatty acid lipoxygenase ALOX12 (Homo sapiens) (UniProt P18054) (assay: Primary qHTS assay for inhibitors of human arachidonate 12S-lipoxygenase (ALOX12): Round 2). Conditions: purified 12hLO, xylenol orange hydroperoxide absorbance; series mostly up to 108 µM.
In short: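 Purified human 12hLO at 150 nM in 25 mM Hepes, 0.01% Triton X-100, pH 7.0, preincubated 15 min at room temperature with compound. Reaction started with 40 uM arachidonic acid, 30 min at room temperature. Hydroperoxide measured by Fe-xylenol orange, 573/405 nm absorbance ratio.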
Potency is the fitted concentration of half-maximal effect.

Structure (SMILES) | Potency
O=C(NCCc1ccccc1)c1ccc(-c2ccccc2Cl)o1 | inconclusive: 44.7 µM [inhibitor, partial curve, poor fit]
Cc1cc(OC(=O)Cc2cccc3ccccc23)c([N+](=O)[O-])c(=O)[nH]1 | inconclusive: 50.1 µM [inhibitor, partial curve, poor fit]
FC(F)(F)c1cccc(NC(=S)NCc2ccccc2)c1 | inconclusive: 44.7 µM [inhibitor, partial curve, poor fit]
O=C(Nc1ccc(NC(=O)C2CCCCC2)nc1)c1ccccn1 | inactive
CCOC(=O)c1sc(NC(=O)C2CC2)cc1C | inactive
Cn1nc(C(C)(C)C)cc1-c1nn2c(-c3ccco3)nnc2s1 | inconclusive: 50.1 µM [inhibitor, single point]
Nc1ccccc1Sc1cc(Cl)nnc1Cl | inconclusive: 44.7 µM [inhibitor, partial curve, poor fit]
Cc1cccc(C)c1NC(=O)CSc1nnc(NC(=O)c2ccccc2C(=O)O)s1 | inconclusive: 25.1 µM [inhibitor, partial curve, poor fit]
CS(=O)(=O)Nc1cccc(-c2cc(NCc3ccccc3)ncn2)c1 | active: 11.2 µM
CCc1c(C(C)S(=O)(=O)c2ccc(C)cc2)[nH]c(=O)n1-c1ccc(OC(F)(F)F)cc1 (stereo not given) | inconclusive: 100 µM [inhibitor, single point]
COc1cccc(Nc2ncc3ncc(=O)n(C)c3n2)c1 | inactive
C=C(C)CSc1nncn1/N=C/c1ccc(OC)cc1 | inconclusive: 112 µM [inhibitor, single point]
COc1ccccc1-c1nnc(SCc2csc(Nc3ccc(C)cc3)n2)o1 | active: 39.8 µM
COc1ccc(CC(=O)OC(C)C(=O)c2ccc(C)cc2)cc1 (stereo not given) | inactive
CC1(C)CC(=O)c2cc(C(=O)NNc3ccccc3)c(=O)n(-c3ccccc3)c2C1 | inconclusive: 8.91 µM [inhibitor, full curve, poor fit]
CCOC(=O)n1c(=O)n(Cc2ccc(Cl)cc2Cl)c2ccccc21 | inconclusive: 44.7 µM [inhibitor, single point]
COc1ccc(C(C)=O)cc1CSc1ccc(S(=O)(=O)N2CCOCC2)cn1 | inconclusive: 112 µM [inhibitor, single point]
Cn1c(=O)c2c(-c3ccccc3Cl)n(-c3cccc(O)c3)cc2n(C)c1=O | inconclusive: 44.7 µM [inhibitor, partial curve, poor fit]
CN1CC[C@H]2COC(=O)N2c2cc(F)ccc2C1 | inconclusive: 141 µM [inhibitor, partial curve, poor fit]
C[C@]12CCC3c4ccc(O)cc4CCC3C1CCC2=O (stereo not given in full) | inconclusive: 6.11 µM [inhibitor, partial curve]
CC(SC(C)c1ccc(Cl)cc1)C(N)=O (stereo not given) | inconclusive: 56.2 µM [inhibitor, partial curve, poor fit]
COc1ccnc(CSC(N)=Nc2ccccc2OC)c1 | inconclusive: 56.2 µM [inhibitor, partial curve, poor fit]

Of the compounds above, 8 contain a halogen:
Structure (SMILES) | Potency
O=C(NCCc1ccccc1)c1ccc(-c2ccccc2Cl)o1 | inconclusive: 44.7 µM [inhibitor, partial curve, poor fit]
FC(F)(F)c1cccc(NC(=S)NCc2ccccc2)c1 | inconclusive: 44.7 µM [inhibitor, partial curve, poor fit]
Nc1ccccc1Sc1cc(Cl)nnc1Cl | inconclusive: 44.7 µM [inhibitor, partial curve, poor fit]
CCc1c(C(C)S(=O)(=O)c2ccc(C)cc2)[nH]c(=O)n1-c1ccc(OC(F)(F)F)cc1 (stereo not given) | inconclusive: 100 µM [inhibitor, single point]
CCOC(=O)n1c(=O)n(Cc2ccc(Cl)cc2Cl)c2ccccc21 | inconclusive: 44.7 µM [inhibitor, single point]
Cn1c(=O)c2c(-c3ccccc3Cl)n(-c3cccc(O)c3)cc2n(C)c1=O | inconclusive: 44.7 µM [inhibitor, partial curve, poor fit]
CN1CC[C@H]2COC(=O)N2c2cc(F)ccc2C1 | inconclusive: 141 µM [inhibitor, partial curve, poor fit]
CC(SC(C)c1ccc(Cl)cc1)C(N)=O (stereo not given) | inconclusive: 56.2 µM [inhibitor, partial curve, poor fit]

(next part)

Structure (SMILES) | Potency
O=C(/C=C/c1ccco1)OC(C(=O)c1ccccc1)c1ccccc1 (stereo not given) | inconclusive: 12.6 µM [inhibitor, full curve, poor fit]
COc1ccccc1NC(=O)C(C)OC(=O)Cc1n[nH]c(=O)c2ccccc12 (stereo not given) | inconclusive: 15.8 µM [inhibitor, full curve]
COc1cccc(C2C(C(=O)Nc3ccccn3)=C(C)Nc3ncnn32)c1OC (stereo not given) | inactive
Cc1ccc(CNC(=O)c2ccc(CSCc3c(F)cccc3Cl)o2)cc1 | inconclusive: 89.1 µM [inhibitor, partial curve, poor fit]
CCN(CC)CCNC(=O)c1c(C)[nH]c(C=C2C(=O)Nc3ccc(F)cc32)c1C | inconclusive: 49.8 µM [inhibitor, partial curve, poor fit]
N#Cc1c(/N=C/C=C/c2ccccc2)sc2c1CCCC2 | inconclusive: 35.5 µM [inhibitor, partial curve, poor fit]
Cc1nc2cc(NC(C)C(=O)Nc3ccc(C(N)=O)cc3)ccc2o1 (stereo not given) | inconclusive: 31.6 µM [inhibitor, partial curve]
O=C1N[C@H](CC(=O)N2CCn3c(nnc3C(F)(F)F)C2)C(=O)Nc2ccccc21 | inactive
CCOc1ccc(NC(=S)NS(=O)(=O)c2cc(Br)ccc2OCC)cc1 | inconclusive: 31.6 µM [inhibitor, partial curve, poor fit]
COc1ccc(NC(=O)c2cccc(OC(F)F)c2)cc1Cl | inactive
CCCN1CCN(C(=O)CN2C(=O)c3cccnc3Oc3ccc(Cl)cc32)CC1 | inactive
Cn1nc(C(=O)OCc2nc(-c3ccc(Cl)cc3)no2)c2ccccc21 | inconclusive: 0.199 µM [inhibitor, full curve, poor fit]
COC(=O)C1CCN(C(=O)C2CC(=O)N(c3ccc(C)c(Cl)c3)C2)CC1 (stereo not given) | inconclusive: 112 µM [inhibitor, single point]
C/C=C/C=C/C(=O)[C@@H]1[C@@H]([C@]2(C)OC(=O)C(C)=C2O)[C@H]2/C(=C(O)/C=C/C=C/C)C(=O)[C@]1(C)C(=O)C2(C)O (stereo not given in full) | inconclusive: 100 µM [inhibitor, single point]
COC(=O)c1cc(C)sc1NC(=O)CN1CCN(C(=O)C2CCCO2)CC1 (stereo not given) | inactive
CN(C(=O)CN1CCOCC1)C1CCc2nn(C)c(=O)n2CC1 (stereo not given) | inactive
CCOc1ccc(C(=O)N2CCC3(CC2)NC(=O)N(Cc2ccccc2)C3=O)cc1 | inconclusive: 3.98 µM [inhibitor, full curve, poor fit]
Cc1cc(C)c(NC(=O)CSc2ncc(-c3ccc(F)cc3)o2)c(C)c1 | inconclusive: 44.7 µM [inhibitor, partial curve, poor fit]
C=CCN1C(=O)/C(=c2\sc3nc(=O)c(Cc4ccccc4)nn3c2=O)c2ccccc21 | inconclusive: 35.5 µM [inhibitor, partial curve, poor fit]
CCN(CC)CCOCCOC(=O)C1(c2ccccc2)CCCC1 | inconclusive: 1 µM [inhibitor, full curve, poor fit]
CCNc1oc(-c2cccc3ccccc23)nc1C#N | inactive
CCOc1ccc(CN(C)CC(O)COC(c2ccc(OC)cc2)c2ccc(OC)cc2)cc1 (stereo not given) | inconclusive: 3.98 µM [inhibitor, full curve, poor fit]

Structure (SMILES) | Potency
O=C(c1ccc(F)cc1)C1CCN(C(=S)Nc2ccc(F)cc2)CC1 | inconclusive: 39.8 µM [inhibitor, partial curve, poor fit]
CCOc1ccc(NC(=S)NCc2nc3ccccc3[nH]2)cc1 | inactive
COc1ccc(CNC[C@H]2O[C@H](Cc3cc(-c4ccc(OC)cc4)on3)CC[C@@H]2O)cc1 | inconclusive: 14.1 µM [inhibitor, full curve]
CCOc1ccc(S(=O)(=O)N(C)CC(=O)N2CCCC2)cc1 | inactive
CCN(CCNS(=O)(=O)c1ccc2[nH]c(=O)sc2c1)c1ccccc1 | inconclusive: 50.1 µM [inhibitor, partial curve, poor fit]
O=C(CCC1CCCC1)NCc1ccc(OCc2cccnc2)cc1 | inactive
O=[N+]([O-])c1ccc(CN2CCCCCC2)s1 | inconclusive: 63.1 µM [inhibitor, partial curve, poor fit]
C[C@@H]1CN([C@H](C)CO)C(=O)CCCn2nncc2CO[C@@H]1CN(C)S(=O)(=O)c1ccc(Oc2ccccc2)cc1 | inconclusive: 112 µM [inhibitor, single point]
CC(C)CCNC(=O)Cn1cc(C#N)c2ccccc21 | inconclusive: 141 µM [inhibitor, single point]
CC1=C(C(=O)O)N2C(=O)C(NC(=O)c3nn(C)cc3[N+](=O)[O-])C2SC1 (stereo not given) | inconclusive: 50.1 µM [inhibitor, partial curve, poor fit]
COc1ccc(C(C(=O)NCc2ccccc2)n2c(=O)c(-c3ccco3)nc3ccccc32)cc1 (stereo not given) | active: 39.8 µM
CC(COc1cccc2ccccc12)CN1CCN(C)CC1 (stereo not given) | inconclusive: 44.7 µM [inhibitor, partial curve]
CCc1cccc(C)c1NS(=O)(=O)c1cccc(C(F)(F)F)c1 | inconclusive: 50.1 µM [inhibitor, single point]
N#Cc1c(-c2cc(Cl)ccc2Cl)csc1N | inconclusive: 28.2 µM [inhibitor, partial curve, poor fit]
CCCS(=O)(=O)Nc1ccc2c(c1)CC(=O)N2CC | inactive
O=C(O)C(c1c[nH]c2cc(OCc3ccccc3)ccc12)N1CCN(c2cccc(Cl)c2)CC1 (stereo not given) | inconclusive: 44.7 µM [inhibitor, partial curve, poor fit]
CCc1cc2c(Nc3ccc(O)cc3)nc(C)nc2s1 | inconclusive: 39.8 µM [inhibitor, partial curve]
c1cn2cc(CSC3CCCCC3)nc2s1 | inactive
CCCCn1c(N)c(N(CC)C(=O)C(c2ccccc2)c2ccccc2)c(=O)[nH]c1=O | inconclusive: 5.62 µM [inhibitor, partial curve, poor fit]
CCOc1ccccc1NC(=O)C(=O)NCC(c1cccnc1)N1CCN(c2ccccc2)CC1 (stereo not given) | inconclusive: 126 µM [inhibitor, partial curve, poor fit]
CCN(CC)CCNC(=O)c1ccc(NC(=O)c2ccc(-n3cncn3)c([N+](=O)[O-])c2)cc1 | inconclusive: 44.7 µM [inhibitor, partial curve, poor fit]

Another view of some results above.
FC(F)(F)c1cccc(NC(=S)NCc2ccccc2)c1
  Potency: inconclusive: 44.7 µM [inhibitor, partial curve, poor fit]
C/C=C/C=C/C(=O)[C@@H]1[C@@H]([C@]2(C)OC(=O)C(C)=C2O)[C@H]2/C(=C(O)/C=C/C=C/C)C(=O)[C@]1(C)C(=O)C2(C)O (stereo not given in full)
  Potency: inconclusive: 100 µM [inhibitor, single point]
